The values below come from paper PMC6714217.

Results are given in words; binding and its absence hold for the method and conditions named. In cells and extracts the contact can be indirect. Some entries that bind do so weakly or less than the wild type.

This test concerns the target T1, FOXM1 (human (endogenous in MDA-MB-231)) (UniProt Q08050).
T1 sequence: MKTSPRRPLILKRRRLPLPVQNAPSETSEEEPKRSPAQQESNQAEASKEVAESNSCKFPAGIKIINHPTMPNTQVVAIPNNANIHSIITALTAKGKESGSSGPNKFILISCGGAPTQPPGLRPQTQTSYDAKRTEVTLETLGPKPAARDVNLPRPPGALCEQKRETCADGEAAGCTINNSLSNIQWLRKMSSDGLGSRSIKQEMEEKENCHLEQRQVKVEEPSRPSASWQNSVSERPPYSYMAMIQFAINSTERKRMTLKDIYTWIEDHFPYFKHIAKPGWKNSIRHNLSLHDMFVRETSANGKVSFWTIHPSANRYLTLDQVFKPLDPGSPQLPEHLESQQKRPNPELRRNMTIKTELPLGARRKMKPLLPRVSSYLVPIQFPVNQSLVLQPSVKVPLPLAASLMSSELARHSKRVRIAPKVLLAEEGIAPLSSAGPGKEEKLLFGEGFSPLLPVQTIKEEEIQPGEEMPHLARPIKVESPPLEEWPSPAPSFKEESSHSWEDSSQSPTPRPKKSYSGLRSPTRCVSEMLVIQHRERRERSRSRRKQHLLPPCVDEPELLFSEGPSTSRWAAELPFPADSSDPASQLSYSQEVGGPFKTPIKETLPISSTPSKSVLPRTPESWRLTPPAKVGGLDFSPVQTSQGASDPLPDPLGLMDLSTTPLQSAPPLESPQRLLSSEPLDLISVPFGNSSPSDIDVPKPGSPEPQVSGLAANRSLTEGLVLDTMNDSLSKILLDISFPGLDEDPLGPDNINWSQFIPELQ
Briefly: co-IP; endogenous proteins in MDA-MB-231 lysate; IP buffer 50 mmol/L Tris pH 7.5, 100 mmol/L NaCl, 5 mmol/L EDTA, 5 mmol/L EGTA, 1% NP-40, 5% glycerol; which of the two was precipitated is not told.

B1: Aurora kinase A (enzyme, UniProt O14965 1-403)
chain: MDRSKENCISGPVKATAPVGGPKRVLVTQQFPCQNPLPVNSGQAQRVLCPSNSSQRIPLQAQKLVSSHKPVQNQKQKQLQATSVPHPVSRPLNNTQKSKQPLPSAPENNPEEELASKQKNEESKKRQWALEDFEIGRPLGKGKFGNVYLAREKQSKFILALKVLFKAQLEKAGVEHQLRREVEIQSHLRHPNILRLYGYFHDATRVYLILEYAPLGTVYRELQKLSKFDEQRTATYITELANALSYCHSKRVIHRDIKPENLLLGSAGELKIADFGWSVHAPSSRRTTLCGTLDYLPPEMIEGRMHDEKVDLWSLGVLCYEFLVGKPPFEANTYQETYKRISRVEFTFPDFVTEGARDLISRLLKHNPSQRPMLREVLEHPWITANSSKPSNCQNKESASKQS
B1: the binding result is given as “binds”.
